{"source": "patent US5021408A", "about": "“Hydrocortisone-17-oxo-21-thioesters, their preparation and their uses as medicaments” (Jouveinal S.A., priority 1983, dated 1991)", "assay": "Dissociation ratio R local anti-inflammatory activity / systemic activity", "assay_type": "in vivo, mouse (ear inflammation) and rat (thymus)", "details": "for R hydrocortisone-21-acetate / R studied product: comparison with hydrocortisone-21-acetate = 1", "procedure": "The results obtained by this study make it possible to calculate the activity ratio:\nlocal anti-inflammatory activity\nThe value of this ratio indicates the dissociation of the activities and is inversely proportional to the size of the dissociation, i.e. the lower this value, the greater the dissociation.\nThis value was calculated on the basis of the expression: [formula]", "data": [{"compound": "CCCCC(=O)O[C@]1(C(=O)CSC(C)=O)CC[C@H]2[C@@H]3CCC4=CC(=O)C=C[C@]4(C)[C@H]3[C@@H](O)C[C@@]21C", "note": "[Prednisolone-21-thioacetate-17-valerate]", "values": [{"measurement": "R hydrocortisone-21-acetate / R studied product", "result": 155}, {"measurement": "dissociation, times better than its oxygenated homologue", "setting": "prednisolone series, versus prednisolone-21-acetate-17-valerate", "result": "approximately 1,5 times"}]}, {"compound": "CCC(=O)O[C@]1(C(=O)CSC(C)=O)[C@@H](C)C[C@H]2[C@@H]3CCC4=CC(=O)C=C[C@]4(C)[C@@]3(F)[C@@H](O)C[C@@]21C", "note": "[betamethasone-21-thioacetate-17-propionate]", "values": [{"measurement": "R hydrocortisone-21-acetate / R studied product", "result": 5.35}]}, {"compound": "CC(=O)O[C@]1(C(=O)CSC(=O)CC(C)(C)C)[C@H](C)C[C@H]2[C@@H]3CCC4=CC(=O)C=C[C@]4(C)[C@@]3(F)[C@@H](O)C[C@@]21C", "note": "[dexamethasone-21-thiotertiobutylacetate-17-acetate]", "values": [{"measurement": "R hydrocortisone-21-acetate / R studied product", "result": 7.0}]}, {"compound": "CCC(=O)O[C@]1(C(=O)CSC(=O)CC)[C@@H](C)C[C@H]2[C@@H]3CCC4=CC(=O)C=C[C@]4(C)[C@@]3(Cl)[C@@H](O)C[C@@]21C", "note": "[beclomethasone-21-thiopropionate-17-propionate]", "values": [{"measurement": "R hydrocortisone-21-acetate / R studied product", "result": 23.20}]}, {"compound": "CC(=O)OCC(=O)[C@@]1(O)CC[C@H]2[C@@H]3CCC4=CC(=O)CC[C@]4(C)[C@H]3[C@@H](O)C[C@@]21C", "note": "[hydrocortisone-21-acetate]", "values": [{"measurement": "R hydrocortisone-21-acetate / R studied product", "result": 1}]}, {"compound": "CCC(=O)O[C@]1(C(=O)CSC(=O)CC)[C@@H](C)C[C@H]2[C@@H]3CCC4=CC(=O)C=C[C@]4(C)[C@@]3(F)[C@@H](O)C[C@@]21C", "note": "[betamethasone-21-thiopropionate-17-propionate]", "values": [{"measurement": "R hydrocortisone-21-acetate / R studied product", "result": 49.40}]}, {"compound": "CCCCC(=O)O[C@]1(C(=O)CSC(C)=O)CC[C@H]2[C@@H]3C[C@H](C)C4=CC(=O)C=C[C@]4(C)[C@H]3[C@@H](O)C[C@@]21C", "note": "[6-α-methylprednisolone-21-thioacetate-17-valerate]", "values": [{"measurement": "R hydrocortisone-21-acetate / R studied product", "result": 1.85}]}, {"compound": "CCCC(=O)O[C@]1(C(=O)CSC(=O)CC)CC[C@H]2[C@@H]3CCC4=CC(=O)CC[C@]4(C)[C@H]3[C@@H](O)C[C@@]21C", "note": "[Example 2, 3,20-dione-11β-hydroxypregn-4-ene-21-thiopropionate-17-butyrate]", "values": [{"measurement": "R hydrocortisone-21-acetate / R studied product", "result": 1528}, {"measurement": "dissociation of the activities, times better than hydrocortisone-21-propionate-17-butyrate", "setting": "versus its homologue hydrocortisone-21-propionate-17-butyrate", "result": "more than 45 times"}]}, {"compound": "CCCC(=O)O[C@]1(C(=O)COC(=O)CC)CC[C@H]2[C@@H]3CCC4=CC(=O)CC[C@]4(C)[C@H]3[C@@H](O)C[C@@]21C", "note": "[Hydrocortisone-21-propionate-17-butyrate, hydrocortisone-21-propionate-17-butyrate]", "values": [{"measurement": "R hydrocortisone-21-acetate / R studied product", "result": 32.8}]}, {"compound": "CCC(=O)SCC(=O)[C@@]1(OC(C)=O)[C@@H](C)C[C@H]2[C@@H]3CCC4=CC(=O)C=C[C@]4(C)[C@@]3(F)[C@@H](O)C[C@@]21C", "note": "[betamethasone-21-thiopropionate-17-acetate]", "values": [{"measurement": "R hydrocortisone-21-acetate / R studied product", "result": 4.30}]}, {"compound": "CCCCC(=O)O[C@]1(C(=O)COC(C)=O)CC[C@H]2[C@@H]3CCC4=CC(=O)C=C[C@]4(C)[C@H]3[C@@H](O)C[C@@]21C", "note": "[Prednisolone-21-acetate-17-valerate, prednisolone-21-acetate-17-valerate]", "values": [{"measurement": "R hydrocortisone-21-acetate / R studied product", "result": 107.0}]}, {"compound": "CCCC(=O)O[C@]1(C(=O)CSC(C)=O)CC[C@H]2[C@@H]3CCC4=CC(=O)CC[C@]4(C)[C@H]3[C@@H](O)C[C@@]21C", "note": "[Example 1, 3,20-dione-11β-hydroxypregn-4-ene-21-thioacetate-17-butyrate]", "values": [{"measurement": "R hydrocortisone-21-acetate / R studied product", "result": 930}]}, {"compound": "CC(C)(C)C(=O)SCC(=O)[C@@]1(O)CC[C@H]2[C@@H]3CCC4=CC(=O)CC[C@]4(C)[C@H]3[C@@H](O)C[C@@]21C", "note": "[Hydrocortisone-21-thiopivalate, hydrocortisone-21-thiopivalate]", "values": [{"measurement": "R hydrocortisone-21-acetate / R studied product", "result": 31.0}]}]}
